Experimental data: publication PMC7819943, “Rice protein-binding microarrays: a tool to detect cis-acting elements near promoter regions in rice”
This is one part of the list.

By UniProt entry, the sequences of proteins in these tests, tags left out.
UniProt Q0JBA9, entry or part of it: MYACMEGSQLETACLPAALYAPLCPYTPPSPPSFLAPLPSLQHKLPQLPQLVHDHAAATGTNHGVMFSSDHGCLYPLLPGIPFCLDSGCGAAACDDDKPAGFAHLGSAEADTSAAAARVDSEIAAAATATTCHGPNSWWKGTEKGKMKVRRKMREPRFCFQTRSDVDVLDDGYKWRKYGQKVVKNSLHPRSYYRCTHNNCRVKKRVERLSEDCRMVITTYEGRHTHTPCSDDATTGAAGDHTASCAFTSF

Each sequence was assayed against OsWRKY34 (Oryza sativa, UniProt Q0JBA9 1-250) (assay: protein-binding microarray (RPBM); PBS, 2% BSA, 51.3 ng/ul salmon testes DNA, 50 uM zinc acetate, 200 nM TF, 25 C, 1 h; high values mean tight binding). Conditions: protein: recombinant; tags: N-terminal polyhistidine and DsRed monomer fusion (pET32a); label: CyDye5-dUTP incorporated in the synthesized complementary strand; 3' TTTTT single-stranded linker to array surface; dsDNA, one strand shown.
Outline: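 An Axon 4000B scanner gave the binding signal as per-feature fluorescence intensity in arbitrary units. This followed washing of a custom Agilent array that had been incubated for 1 h at 25 °C with 200 nM protein in PBS, 2% BSA, salmon testes DNA and 50 µM zinc acetate. The proteins were transcription factors fused at the N-terminus to polyhistidine and DsRed, expressed in E. coli BL21-CodonPlus and purified on Ni–NTA.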

Sequence	binding signal
CTATCCAGATTAAATGGGCCTCCAAAATACCAAAGGCCCACGGAGTCACCTAGTGCAG	8390 fluorescence intensity (a.u.)
TCGCACACCGTCAACAACCCAACCCCAACTACCCCAAAATCGGAGTCACCTAGTGCAG	8500 fluorescence intensity (a.u.)
CTCATGGTCTCATCTTTTCGTCTATCATTATCTTTATCAGCGGAGTCACCTAGTGCAG	11100 fluorescence intensity (a.u.)
TAATTTGGTGCATGCTTGGATTTGGGGATTTCTTTCTTATCGGAGTCACCTAGTGCAG	13400 fluorescence intensity (a.u.)
CTCCTGCGCCGTCGTTTCCCTCTTCCATCCTTCGCTCGCTCGGAGTCACCTAGTGCAG	9790 fluorescence intensity (a.u.)
CAGCCTGTACACCAATACGTCCACGCACACAAGTCGCTGCCGGAGTCACCTAGTGCAG	8090 fluorescence intensity (a.u.)
ATGTTTGACCATTCGTCTTATTCAAAAATTTTATGCAAATCGGAGTCACCTAGTGCAG	10200 fluorescence intensity (a.u.)
GATTGGGCAAGCCGGCCGGTGGTGGGGAGGTCGTTGCCGGCGGAGTCACCTAGTGCAG	11100 fluorescence intensity (a.u.)
CCCGGAGCTCCGCGCCTAGACTGCCAGCTCGCCACCTCGTCGGAGTCACCTAGTGCAG	8550 fluorescence intensity (a.u.)
TTGACCACCAAGCTCCTGCTTCTTGCAATCTTGATCGATACGGAGTCACCTAGTGCAG	9170 fluorescence intensity (a.u.)
GCACCGATACAGCCTTCACCCGCACCTCGCTTCCTTGGATCGGAGTCACCTAGTGCAG	8670 fluorescence intensity (a.u.)
CTATTGATTTCTGCTGCTACTTTTCTATACTGTATTTTGTCGGAGTCACCTAGTGCAG	8410 fluorescence intensity (a.u.)
TGCTTCTCGGGGTTTGGTGGTGTTCTAGCAGGCAGTTCGTCGGAGTCACCTAGTGCAG	10100 fluorescence intensity (a.u.)
ACGTCATTATTTTAGGTCTTTAATCCCTTGGGACTTTGTACGGAGTCACCTAGTGCAG	8310 fluorescence intensity (a.u.)
CCACTGCTTCCAGAAGCGAGCGAGCTCTCCTTTCCTTTCTCGGAGTCACCTAGTGCAG	8890 fluorescence intensity (a.u.)
CCCTTTTTCTGCCCGGAATCGCGCTGCGTCGTACCCCGACCGGAGTCACCTAGTGCAG	10000 fluorescence intensity (a.u.)
AGCAGCCAAACTCCGTGCATTTCCCTTTCAAATGACCTCCCGGAGTCACCTAGTGCAG	8180 fluorescence intensity (a.u.)
GCTATTCTCCGTTTATTTCCTGCCAAAGCTCTATCCATTTCGGAGTCACCTAGTGCAG	10100 fluorescence intensity (a.u.)
AATCACTTTCTACTGCTTATTGGTTTCTGCACGTTTCTTTCGGAGTCACCTAGTGCAG	14300 fluorescence intensity (a.u.)
CTCTACTCATCTTCTCTGCCAGCTGCTACTACACCAACCACGGAGTCACCTAGTGCAG	8840 fluorescence intensity (a.u.)
CGTCGCCTCCCTCGCAGGCGCCCTCCTTGCCATCCGCCGACGGAGTCACCTAGTGCAG	8470 fluorescence intensity (a.u.)

Sequence	binding signal
AACCACCGCTCAGCCTCGACGTCGAGATCCATAATCCACACGGAGTCACCTAGTGCAG	8040 fluorescence intensity (a.u.)
TTTTGCAAAATTTAAGATATGCCATCCTGACCCACATGTTCGGAGTCACCTAGTGCAG	8300 fluorescence intensity (a.u.)
ATCCCATCTCGTTTGTTCTTCACTCTGTGTATTATGCATCCGGAGTCACCTAGTGCAG	9320 fluorescence intensity (a.u.)
CACATCACCACTTCACTTGGCCCTAATACTCCTTTTTTAGCGGAGTCACCTAGTGCAG	8450 fluorescence intensity (a.u.)
ACTCGCATCTCCAATTCGGTCCGAATTTTTCCAAATTCCACGGAGTCACCTAGTGCAG	8680 fluorescence intensity (a.u.)
TCAATTGTCGCGAGTCTTCTCCTTTTTTTTTTCGTTTTTTCGGAGTCACCTAGTGCAG	11900 fluorescence intensity (a.u.)
GCAAGCTCCAGATCTGACGGCATCATCACCACTGCTTCTCCGGAGTCACCTAGTGCAG	9770 fluorescence intensity (a.u.)
ATCCCACTGTTTAGTTCGTTTAGTCTGTCACATATGATCCCGGAGTCACCTAGTGCAG	8050 fluorescence intensity (a.u.)
TGGCATCATCGACCATACACTTTTGTCAATCCGTTCAGCTCGGAGTCACCTAGTGCAG	8910 fluorescence intensity (a.u.)
GCCACTCTGGCGCCCCAAAAAGGATTATTTCTGGGATAAGCGGAGTCACCTAGTGCAG	12000 fluorescence intensity (a.u.)
GGACTGGGGAAGACGACACGACATGGGCTGGGCTGGGCTGCGGAGTCACCTAGTGCAG	9570 fluorescence intensity (a.u.)
CCGTCCCGTCTCCTCGCCCGCCGCCCTCGACTCCCGTCTCCGGAGTCACCTAGTGCAG	8660 fluorescence intensity (a.u.)
TTACTGACACTGAAAGTTTCTATTATTTCACAATTCCTATCGGAGTCACCTAGTGCAG	8100 fluorescence intensity (a.u.)
ATCGCTCTAAAAATATTTGTGCGTTGACTAGAAACCATGTCGGAGTCACCTAGTGCAG	13700 fluorescence intensity (a.u.)
CTCGCCGTTGCAGCCATCTCACTGCAGTGTACCCTGCAACCGGAGTCACCTAGTGCAG	8050 fluorescence intensity (a.u.)
GTTTCAGGTTATAAGATATTTTGACTTTGTTTAAAGTCAACGGAGTCACCTAGTGCAG	8360 fluorescence intensity (a.u.)
CTCTCCTCCACTCCGCTCCCGTCGCCGCCACATCGCCATGCGGAGTCACCTAGTGCAG	8770 fluorescence intensity (a.u.)
GCCTCGCCTCCGCGCACCTGGCCTCCGTAGATCCAAACGTCGGAGTCACCTAGTGCAG	9480 fluorescence intensity (a.u.)
TGGTGATTTGGGTGTTTCTTTGTTCGGAATTGCAGGGAGGCGGAGTCACCTAGTGCAG	9420 fluorescence intensity (a.u.)
TGTGTTATTGGTTTTGTCTTGATCTGTACTGGCTTGTCTACGGAGTCACCTAGTGCAG	9080 fluorescence intensity (a.u.)
TATTATATGCCACATCTTAGCACAAGGTTGTTTTTGTTTTCGGAGTCACCTAGTGCAG	9420 fluorescence intensity (a.u.)
